Experimental data taken from paper PMC8344021, “Discovery of Small Molecule Bak Activator for Lung Cancer Therapy” (Theranostics, 2021).
No constants are given. Whether binding was seen depends on the method and setting. Binding seen in cells or lysates may run through a third protein. Some entries that bind do so weakly or less than the wild type.

Biological target: T1, Bak (endogenous, mitochondria of A549 cells) (human (endogenous in A549)), Q16611
T1 chain: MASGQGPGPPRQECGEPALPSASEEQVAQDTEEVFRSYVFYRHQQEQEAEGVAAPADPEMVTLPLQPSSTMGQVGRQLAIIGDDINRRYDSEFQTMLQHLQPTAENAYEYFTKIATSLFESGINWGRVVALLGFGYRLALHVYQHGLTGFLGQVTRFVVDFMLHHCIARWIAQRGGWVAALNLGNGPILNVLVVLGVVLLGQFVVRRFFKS
Assay: cross-linking; mitochondria isolated from A549 xenograft tumor tissues of mice treated with BKA-073 (0, 5, 10, 15 mg/kg/d, 28 days); cross-linking with BMH; Western blot for Bak
Details: remark: other sources report otherwise

B1: Bak (endogenous, mitochondria of A549 cells), Q16611 1-211 (natural protein)
chain: T1 chain
binding: binds
